Laboratory results reported in PubChem BioAssay AID188 (DTP/NCI, 2004).
Values are animals surviving of animals treated; these mice carried no tumour. Survivors were counted at the toxicity check, usually on the fifth day, unless a day is given; later deaths do not show. Schedules are NCI's codes, taken here to give the interval after Q, in days (D) or hours (H), and the number of doses after X.

System: CD2F1 mice, nontumored, toxicity/survival
Test: NCI In Vivo Anticancer Drug Screen. Data for tumor model Nontumored Animals (Toxicity Test) in CD2F1 (CDF1) mice

Question: `CNc1nc(N(C)C)nc(N(C)C)n1` was tested. Which survivor count (dose: 16.0 mg/kg/injection, schedule: Q03HX008 (ip), vehicle: water) did it give?
Answer: 8 of 8

Question: What about the survivor count (dose: 16.0 mg/kg/injection, schedule: Q03HX016 (ip), vehicle: water) of the same compound?
Answer: 8 of 8

Question: And the survivor count (dose: 16.0 mg/kg/injection, schedule: Q03HX024 (ip), vehicle: water)?
Answer: 8 of 8

Question: And the survivor count (dose: 32.0 mg/kg/injection, schedule: Q01DX005 (ip), vehicle: water)?
Answer: 8 of 8

Question: And the survivor count (dose: 32.0 mg/kg/injection, schedule: Q01DX005 (iv), vehicle: water)?
Answer: 1 of 8

Question: And the survivor count (dose: 32.0 mg/kg/injection, schedule: Q01DX009 (ip), vehicle: water)?
Answer: 8 of 8

Question: And the survivor count (dose: 32.0 mg/kg/injection, schedule: Q01DX009 (oral), vehicle: water)?
Answer: 8 of 8

Question: What about the survivor count (dose: 32.0 mg/kg/injection, schedule: Q01DX009 (sc), vehicle: water) of the same compound?
Answer: 8 of 8

Question: And the survivor count (dose: 32.0 mg/kg/injection, schedule: Q03HX008 (ip), vehicle: water)?
Answer: 8 of 8

Question: And the survivor count (dose: 32.0 mg/kg/injection, schedule: Q03HX016 (ip), vehicle: water)?
Answer: 8 of 8

Question: And the survivor count (dose: 32.0 mg/kg/injection, schedule: Q03HX024 (ip), vehicle: water)?
Answer: 8 of 8

Question: And the survivor count (dose: 64.0 mg/kg/injection, schedule: Q01DX001 (ip), vehicle: water)?
Answer: 8 of 8

Question: What about the survivor count (dose: 64.0 mg/kg/injection, schedule: Q01DX001 (oral), vehicle: water) of the same compound?
Answer: 8 of 8

Question: What about the survivor count (dose: 64.0 mg/kg/injection, schedule: Q01DX005 (ip), vehicle: water) of the same compound?
Answer: 8 of 8

Question: What about the survivor count (dose: 64.0 mg/kg/injection, schedule: Q01DX005 (iv), vehicle: water) of the same compound?
Answer: 2 of 8

Question: What about the survivor count (dose: 64.0 mg/kg/injection, schedule: Q01DX009 (ip), vehicle: water) of the same compound?
Answer: 8 of 8

Question: What about the survivor count (dose: 64.0 mg/kg/injection, schedule: Q01DX009 (oral), vehicle: water) of the same compound?
Answer: 8 of 8

Question: What about the survivor count (dose: 64.0 mg/kg/injection, schedule: Q01DX009 (sc), vehicle: water) of the same compound?
Answer: 8 of 8

Question: What about the survivor count (dose: 64.0 mg/kg/injection, schedule: Q03HX008 (ip), vehicle: water) of the same compound?
Answer: 8 of 8

Question: And the survivor count (dose: 64.0 mg/kg/injection, schedule: Q03HX016 (ip), vehicle: water)?
Answer: 8 of 8

Question: And the survivor count (dose: 64.0 mg/kg/injection, schedule: Q03HX024 (ip), vehicle: water)?
Answer: 8 of 8

Question: What about the survivor count (dose: 64.0 mg/kg/injection, schedule: Q04DX003 (ip), vehicle: water) of the same compound?
Answer: 8 of 8

Question: What about the survivor count (dose: 64.0 mg/kg/injection, schedule: Q08DX002 (ip), vehicle: water) of the same compound?
Answer: 8 of 8

Question: And the survivor count (dose: 128.0 mg/kg/injection, schedule: Q01DX001 (ip), vehicle: water)?
Answer: 8 of 8

Question: What about the survivor count (dose: 128.0 mg/kg/injection, schedule: Q01DX001 (oral), vehicle: water) of the same compound?
Answer: 8 of 8

Question: And the survivor count (dose: 128.0 mg/kg/injection, schedule: Q01DX005 (ip), vehicle: water)?
Answer: 8 of 8

Question: What about the survivor count (dose: 128.0 mg/kg/injection, schedule: Q01DX005 (iv), vehicle: water) of the same compound?
Answer: 1 of 8

Question: And the survivor count (dose: 128.0 mg/kg/injection, schedule: Q01DX009 (ip), vehicle: water)?
Answer: 7 of 8

Question: And the survivor count (dose: 128.0 mg/kg/injection, schedule: Q01DX009 (oral), vehicle: water)?
Answer: 8 of 8

Question: What about the survivor count (dose: 128.0 mg/kg/injection, schedule: Q01DX009 (sc), vehicle: water) of the same compound?
Answer: 8 of 8

Question: And the survivor count (dose: 128.0 mg/kg/injection, schedule: Q03HX008 (ip), vehicle: water)?
Answer: 7 of 8

Question: And the survivor count (dose: 128.0 mg/kg/injection, schedule: Q03HX016 (ip), vehicle: water)?
Answer: 6 of 8

Question: And the survivor count (dose: 128.0 mg/kg/injection, schedule: Q03HX024 (ip), vehicle: water)?
Answer: 7 of 8

Question: And the survivor count (dose: 128.0 mg/kg/injection, schedule: Q04DX003 (ip), vehicle: water)?
Answer: 8 of 8

Question: What about the survivor count (dose: 128.0 mg/kg/injection, schedule: Q08DX002 (ip), vehicle: water) of the same compound?
Answer: 8 of 8

Question: And the survivor count (dose: 256.0 mg/kg/injection, schedule: Q01DX001 (ip), vehicle: water)?
Answer: 8 of 8

Question: What about the survivor count (dose: 256.0 mg/kg/injection, schedule: Q01DX001 (oral), vehicle: water) of the same compound?
Answer: 8 of 8

Question: What about the survivor count (dose: 256.0 mg/kg/injection, schedule: Q01DX005 (ip), vehicle: water) of the same compound?
Answer: 5 of 8

Question: What about the survivor count (dose: 256.0 mg/kg/injection, schedule: Q01DX005 (iv), vehicle: water) of the same compound?
Answer: 0 of 8

Question: And the survivor count (dose: 256.0 mg/kg/injection, schedule: Q01DX009 (ip), vehicle: water)?
Answer: 7 of 8

Question: And the survivor count (dose: 256.0 mg/kg/injection, schedule: Q01DX009 (oral), vehicle: water)?
Answer: 8 of 8

Question: What about the survivor count (dose: 256.0 mg/kg/injection, schedule: Q01DX009 (sc), vehicle: water) of the same compound?
Answer: 7 of 8

Question: And the survivor count (dose: 256.0 mg/kg/injection, schedule: Q04DX003 (ip), vehicle: water)?
Answer: 8 of 8

Question: And the survivor count (dose: 256.0 mg/kg/injection, schedule: Q08DX002 (ip), vehicle: water)?
Answer: 8 of 8

Question: What about the survivor count (dose: 512.0 mg/kg/injection, schedule: Q01DX001 (ip), vehicle: water) of the same compound?
Answer: 6 of 8

Question: What about the survivor count (dose: 512.0 mg/kg/injection, schedule: Q01DX001 (oral), vehicle: water) of the same compound?
Answer: 8 of 8

Question: And the survivor count (dose: 512.0 mg/kg/injection, schedule: Q04DX003 (ip), vehicle: water)?
Answer: 3 of 8

Question: And the survivor count (dose: 512.0 mg/kg/injection, schedule: Q08DX002 (ip), vehicle: water)?
Answer: 2 of 8

Question: For `C1CCC2C[N-]CCC2C1.C1CCC2C[N-]CCC2C1.C1CCC2C[N-]CCC2C1.C1CCC2C[N-]CCC2C1.[Cl][Rh][Cl]` (stereo not given), which survivor count (dose: 0.06 mg/kg/injection, schedule: Q03HX024 (ip), vehicle: saline) is on record?
Answer: 8 of 8

Question: What about the survivor count (dose: 0.13 mg/kg/injection, schedule: Q03HX008 (ip), vehicle: saline) of the same compound?
Answer: 7 of 8

Question: What about the survivor count (dose: 0.13 mg/kg/injection, schedule: Q03HX016 (ip), vehicle: saline) of the same compound?
Answer: 8 of 8

Question: And the survivor count (dose: 0.13 mg/kg/injection, schedule: Q03HX024 (ip), vehicle: saline)?
Answer: 8 of 8

Question: What about the survivor count (dose: 0.25 mg/kg/injection, schedule: Q01DX009 (ip), vehicle: saline) of the same compound?
Answer: 8 of 8

Question: And the survivor count (dose: 0.25 mg/kg/injection, schedule: Q03HX008 (ip), vehicle: saline)?
Answer: 8 of 8

Question: And the survivor count (dose: 0.25 mg/kg/injection, schedule: Q03HX016 (ip), vehicle: saline)?
Answer: 7 of 8

Question: What about the survivor count (dose: 0.25 mg/kg/injection, schedule: Q03HX024 (ip), vehicle: saline) of the same compound?
Answer: 8 of 8

Question: And the survivor count (dose: 0.5 mg/kg/injection, schedule: Q01DX009 (ip), vehicle: saline)?
Answer: 8 of 8

Question: And the survivor count (dose: 0.5 mg/kg/injection, schedule: Q03HX008 (ip), vehicle: saline)?
Answer: 8 of 8

Question: What about the survivor count (dose: 0.5 mg/kg/injection, schedule: Q03HX016 (ip), vehicle: saline) of the same compound?
Answer: 7 of 8

Question: And the survivor count (dose: 0.5 mg/kg/injection, schedule: Q03HX024 (ip), vehicle: saline)?
Answer: 8 of 8

Question: And the survivor count (dose: 0.5 mg/kg/injection, schedule: Q04DX003 (ip), vehicle: saline)?
Answer: 8 of 8

Question: And the survivor count (dose: 1.0 mg/kg/injection, schedule: Q01DX001 (ip), vehicle: saline)?
Answer: 8 of 8

Question: And the survivor count (dose: 1.0 mg/kg/injection, schedule: Q01DX009 (ip), vehicle: saline)?
Answer: 8 of 8

Question: And the survivor count (dose: 1.0 mg/kg/injection, schedule: Q03HX008 (ip), vehicle: saline)?
Answer: 8 of 8

Question: What about the survivor count (dose: 1.0 mg/kg/injection, schedule: Q03HX016 (ip), vehicle: saline) of the same compound?
Answer: 8 of 8

Question: And the survivor count (dose: 1.0 mg/kg/injection, schedule: Q03HX024 (ip), vehicle: saline)?
Answer: 8 of 8

Question: And the survivor count (dose: 1.0 mg/kg/injection, schedule: Q04DX003 (ip), vehicle: saline)?
Answer: 8 of 8

Question: And the survivor count (dose: 1.0 mg/kg/injection, schedule: Q08DX002 (ip), vehicle: saline)?
Answer: 8 of 8

Question: And the survivor count (dose: 2.0 mg/kg/injection, schedule: Q01DX001 (ip), vehicle: saline)?
Answer: 8 of 8

Question: And the survivor count (dose: 2.0 mg/kg/injection, schedule: Q01DX009 (ip), vehicle: saline)?
Answer: 8 of 8

Question: And the survivor count (dose: 2.0 mg/kg/injection, schedule: Q03HX008 (ip), vehicle: saline)?
Answer: 8 of 8

Question: And the survivor count (dose: 2.0 mg/kg/injection, schedule: Q03HX016 (ip), vehicle: saline)?
Answer: 8 of 8

Question: And the survivor count (dose: 2.0 mg/kg/injection, schedule: Q03HX024 (ip), vehicle: saline)?
Answer: 8 of 8

Question: What about the survivor count (dose: 2.0 mg/kg/injection, schedule: Q04DX003 (ip), vehicle: saline) of the same compound?
Answer: 8 of 8

Question: And the survivor count (dose: 2.0 mg/kg/injection, schedule: Q08DX002 (ip), vehicle: saline)?
Answer: 8 of 8

Question: And the survivor count (dose: 4.0 mg/kg/injection, schedule: Q01DX001 (ip), vehicle: saline)?
Answer: 8 of 8

Question: What about the survivor count (dose: 4.0 mg/kg/injection, schedule: Q01DX009 (ip), vehicle: saline) of the same compound?
Answer: 8 of 8

Question: What about the survivor count (dose: 4.0 mg/kg/injection, schedule: Q03HX008 (ip), vehicle: saline) of the same compound?
Answer: 6 of 8

Question: And the survivor count (dose: 4.0 mg/kg/injection, schedule: Q03HX016 (ip), vehicle: saline)?
Answer: 8 of 8

Question: What about the survivor count (dose: 4.0 mg/kg/injection, schedule: Q04DX003 (ip), vehicle: saline) of the same compound?
Answer: 8 of 8

Question: And the survivor count (dose: 4.0 mg/kg/injection, schedule: Q08DX002 (ip), vehicle: saline)?
Answer: 8 of 8

Question: And the survivor count (dose: 8.0 mg/kg/injection, schedule: Q01DX001 (ip), vehicle: saline)?
Answer: 8 of 8

Question: What about the survivor count (dose: 8.0 mg/kg/injection, schedule: Q01DX009 (ip), vehicle: saline) of the same compound?
Answer: 7 of 8

Question: What about the survivor count (dose: 8.0 mg/kg/injection, schedule: Q04DX003 (ip), vehicle: saline) of the same compound?
Answer: 8 of 8

Question: What about the survivor count (dose: 8.0 mg/kg/injection, schedule: Q08DX002 (ip), vehicle: saline) of the same compound?
Answer: 8 of 8

Question: What about the survivor count (dose: 16.0 mg/kg/injection, schedule: Q01DX001 (ip), vehicle: saline) of the same compound?
Answer: 8 of 8

Question: What about the survivor count (dose: 16.0 mg/kg/injection, schedule: Q04DX003 (ip), vehicle: saline) of the same compound?
Answer: 8 of 8

Question: And the survivor count (dose: 16.0 mg/kg/injection, schedule: Q08DX002 (ip), vehicle: saline)?
Answer: 8 of 8

Question: What about the survivor count (dose: 32.0 mg/kg/injection, schedule: Q01DX001 (ip), vehicle: saline) of the same compound?
Answer: 8 of 8

Question: And the survivor count (dose: 32.0 mg/kg/injection, schedule: Q08DX002 (ip), vehicle: saline)?
Answer: 8 of 8
